From publication PMC4885069
Results are given in words; binding and its absence hold for the method and conditions named. Tags and fused reporters may be left off the sequences shown.

Biological target: hSV2C 455–579 peptide (released from GST-hSV2C 455–579 by thrombin) (human) (UniProt Q496J9)
Assay: SEC; both purified

- binding: no binding
B1: hSV2C 455–579 peptide (released from GST-hSV2C 455–579 by thrombin) (domain or fragment, UniProt Q496J9 455-579)
chain: PDVIKPLQSDEYALLTRNVERDKYANFTINFTMENQIHTGMEYDNGRFIGVKFKSVTFKDSVFKSCTFEDVTSVNTYFKNCTFIDTVFDNTDFEPYKFIDSEFKNCSFFHNKTGCQITFDDDYSA
